In patent US6831061B2, “Apicidin-derivatives, their synthetic methods and anti-tumor compositions containing them” (priority 2000, dated 2004):
At least one structure is not confirmed: it was looked up by name or label, or the drawing left a doubt.

Test system: Histone deacetylase purified from HeLa cells
Experiment: In vitro histone deacetylation assay
Assay type: biochemical, human
Details: [3H]acetyl histone substrate, 37° C., 20 minutes; read-out: Histone deacetylase inhibition IC50
Method: Histone deacetylase was purified from HeLa cells. The activity of histone deacetylase was measured according to a method known in the art—See, e.g., Inoue, A. et al., Biochem. Biophys. […] Here, histone with [^3H]acetyl group labeled with radio-active materials was used as a substrate for measurement of activity of histone deacetylase. After incubation at 37° C. for 20 minutes, [^3H]acetic acid released into medium was extracted with ethylacetate and quantified using a liquid radiation detection method.

`CCC(=O)CCCCC[C@@H]1NC(=O)[C@H]2CCCCN2C(=O)[C@H]([C@@H](C)CC)NC(=O)[C@H](Cc2cn(OC)c3ccccc23)NC1=O` [Apicidin, apicidin] showed an IC50 of 5 nM.
